# Results as given in PubChem BioAssay AID2685 (National Center for Advancing Translational Sciences (NCATS), 2010).
# The list shows a part of the results. Further columns of the screen follow, without active or inactive calls. Compounds called inactive in the main read-out are mostly missing here. The note in brackets gives the kind of curve behind each potency; many fits are weak. Where a SMILES comes first, the peptide text is derived from it. The star is where a group is joined. Tos = Cc1ccc(S(=O)(=O)*)cc1
# Experiment: qHTS Assay for Lipid Storage Modulators in Drosophila S3 Cells;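 on cell number change: cells counted by Cell Tracker Red CMTPX staining in the red channel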
# Settings: BODIPY lipid droplet fluorescence, 18-24 h; for cell number change: measured here: cell count max response, cells fed with added oleic acid
# How it was run: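 Laser-scanning cytometry quantifies lipid droplet accumulation (500–530 nm total intensity; droplet/cell object ratio) in oleic acid-fed (400 uM added) Drosophila S3 cells treated with a concentration series. 20 uM Triacsin C defined 100% inhibition.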
# [1] = measured here: lipid fluorescence (Fed channel) AC50, cells fed with added oleic acid
# [2] = measured here: cell number channel AC50, cells fed with added oleic acid
smiles,measurement,setting,value
CC(=O)N1CCN(c2ccc(NCc3ccco3)cc2)CC1,cell number change,,1.02%
same,AC50,[1],"0.116 µM [rising, full curve, poor fit]"
S=C(c1ccc(-c2cccc(Cl)c2)o1)N1CCCCC1,cell number change,,-52.8%
same,AC50,[2],"29.1 µM [falling, single point]"
CCn1cc(/C=C(\NC(=O)c2ccc(OC)c(OC)c2)C(=O)NCCN2CCOCC2)c2ccccc21,cell number change,,-45.7%
same,AC50,[1],"29.1 µM [falling, single point]"
CCc1nc2ccc(C(=O)N3CCN(c4ccc([N+](=O)[O-])cc4)CC3)cc2nc1CC,cell number change,,18.2%
same,AC50,[1],"6.51 µM [rising, single point]"
OC(C#CCN1CCOCC1)(c1ccccc1)C1CCCCC1 (configuration not stated),cell number change,,-22.7%
CN1CCN(Cc2nc3ccccc3c(=O)n2Cc2nc(-c3ccc([N+](=O)[O-])cc3)cs2)CC1,cell number change,,-49.8%
same,AC50,[2],"18.4 µM [falling, partial curve, poor fit]"
CC1=C(C(=O)N2CCOCC2)C(c2ccc(-c3ccccc3)cc2)NC(=S)N1 (configuration not stated),cell number change,,-32.2%
same,AC50,[2],"7.31 µM [falling, partial curve]"
same,AC50,[1],"6.51 µM [falling, single point]"
CC1CCC2C(=O)N(c3cc(Cl)ccc3OC(=O)c3ccco3)C(=O)C2C1 (configuration not stated),cell number change,,5.24%
same,AC50,[1],"13 µM [falling, partial curve]"
O=C(C1CCC(=O)N(C2CC2)C1)N1CCC(Oc2cccc(F)c2)CC1 (configuration not stated),cell number change,,-9.41%
same,AC50,[1],"29.1 µM [rising, single point]"
CCCn1c(C)cc(=O)c2cc(NC(=O)c3cnccn3)ccc21,cell number change,,31.6%
same,AC50,[2],"4.11 µM [rising, full curve]"
same,AC50,[1],"1.16 µM [rising, full curve]"
NC(=O)C1Cc2ccccc2CN1S(=O)(=O)c1ccc(Cl)s1 (configuration not stated),cell number change,,21%
same,AC50,[1],"0.206 µM [rising, single point]"
Cc1ccc(CC(=O)NCCS(=O)c2ccc(Cl)cc2)cc1 (configuration not stated),cell number change,,-21.6%
CCC(C(=O)NC(C)CCc1ccccc1)n1nc(C)n2c(cc3occc32)c1=O (configuration not stated),cell number change,,-19.9%
same,AC50,[1],"0.291 µM [rising, partial curve]"
COC(=O)c1ccc2c(c1)C(C)(C)C(/C=C/c1ccc(OC)c(OC)c1OC)=[N+]2C,cell number change,,-42.8%
same,AC50,[2],"18.4 µM [falling, single point]"
same,AC50,[1],"18.4 µM [falling, single point]"
COc1cc(NC(=O)c2cccs2)c(OC)cc1NC(=O)Cc1ccccc1,cell number change,,22.6%
same,AC50,[1],"29.1 µM [falling, single point]"
COc1ccc(OC)c(CN2CCN(C(=O)c3cc(S(=O)(=O)Nc4ccccc4OC)ccc3C)CC2)c1,cell number change,,-28.5%
COc1cc2c(cc1OC)C1=NC(=O)CN1C(SCc1ccccc1)=N2,cell number change,,-6.41%
CCCCCN(C(=O)CCC(=O)OCCOc1ccccc1Cl)c1c(N)n(CCCC)c(=O)[nH]c1=O,cell number change,,16.9%
same,AC50,[1],"5.8 µM [rising, single point]"
NC(=O)C1CCN(CCC(=O)Nc2ccc(Br)cc2)CC1,cell number change,,-20.8%
same,AC50,[2],"6.51 µM [falling, single point]"
same,AC50,[1],"0.731 µM [falling, full curve, poor fit]"
Cc1cccc(-c2nn(-c3ccccc3)cc2C(=O)Nc2cccc(S(=O)(=O)NC3=NCCC3)c2)c1,cell number change,,6.43%
COc1ccccc1NC1=NC2(CCCC2)N=C(N)N1,cell number change,,-111%
same,AC50,[2],"20.6 µM [falling, partial curve]"
Cc1c(NC(=O)COC(=O)/C=C/c2ccc(Cl)cc2)c(=O)n(-c2ccccc2)n1C,cell number change,,57.9%
same,AC50,[2],"23.1 µM [rising, single point]"
CC1(C(=O)Nc2cccc(C(F)(F)F)c2)CO1 (configuration not stated),cell number change,,-57.2%
same,AC50,[2],"29.1 µM [falling, single point]"
Cc1ccc(O)c(N=Cc2sc3ccccc3c2Cl)c1,AC50,[2],"6.51 µM [rising, partial curve, poor fit]"
same,AC50,[1],"6.51 µM [rising, partial curve]"
COc1ccc2nc(NC(=O)Cc3ccc(OC)c(S(=O)(=O)N4CCOCC4)c3)sc2c1,cell number change,,-16%
same,AC50,[1],"16.4 µM [falling, single point]"
Cn1nccc1C(=O)N/N=C/c1cccnc1,cell number change,,-23.2%
same,AC50,[2],"0.291 µM [falling, full curve]"
same,AC50,[1],"0.411 µM [falling, full curve]"
Cc1c(C(=O)N/N=C/c2cccnc2)sc(=S)n1C,cell number change,,10.9%
same,AC50,[1],"9.2 µM [rising, single point]"
CCSc1nn2c(=O)c3ccccc3nc2s1,cell number change,,1.63%
same,AC50,[1],"1.84 µM [falling, partial curve, poor fit]"
COc1ccc(N(CC(=O)NC(C)(C)C)C(=O)CCC(=O)Nc2nccs2)cc1,cell number change,,5.7%
same,AC50,[1],"0.731 µM [rising, single point]"
O=C(NCCCN1CCOCC1)C1CCN(S(=O)(=O)c2cccc(C(F)(F)F)c2)CC1,cell number change,,-12%
same,AC50,[1],"2.31 µM [falling, partial curve]"
CN(C)CCCN(C(=O)CCOc1ccccc1)c1nc2ccc(F)cc2s1,cell number change,,-69.8%
same,AC50,[2],"29.1 µM [falling, single point]"
same,AC50,[1],"29.1 µM [falling, single point]"
O=C(Nc1ccc(-c2nc3ccccc3o2)cc1)c1cccnc1,cell number change,,-12%
same,AC50,[1],"0.461 µM [falling, full curve, poor fit]"
COc1ccc(-n2c(Cc3cccn3C)nnc2SCC(=O)Nc2cccc(NC(C)=O)c2)cc1,cell number change,,-10.4%
same,AC50,[1],"32.6 µM [falling, single point]"
C=CCn1c(SCC(=O)Nc2sccc2C(N)=O)nc2ccc(Cl)cc2c1=O,cell number change,,-6.63%
same,AC50,[1],"16.4 µM [falling, single point]"
C=C(C)CN1C(=O)C2(OCCO2)c2ccccc21,cell number change,,46.8%
same,AC50,[2],"16.4 µM [rising, partial curve]"
CCOc1ccc(NC(=O)C2CCC(C)(C(=O)O)C2(C)C)cc1 (configuration not stated),cell number change,,9.17%
same,AC50,[1],"20.6 µM [rising, partial curve]"
CC(=O)Nc1cccc(C(=O)OCC(=O)NC(=O)Cc2ccccc2)c1,cell number change,,33.4%
same,AC50,[2],"11.6 µM [rising, single point]"
same,AC50,[1],"20.6 µM [rising, partial curve, poor fit]"
O=C(O)c1ccc(NS(=O)(=O)c2cccc(C(=O)Nc3ccc(Br)cc3)c2)cc1,cell number change,,1.46%
same,AC50,[1],"0.651 µM [rising, single point]"
NNC(=O)CS(=O)(=O)CS(=O)(=O)CC(=O)NN,cell number change,,0.66%
same,AC50,[1],"2.59 µM [falling, single point]"
COc1ccccc1NC(=O)C1CCN(S(=O)(=O)c2cccc3nonc23)CC1,cell number change,,-26.2%
same,AC50,[2],"2.31 µM [falling, single point]"
same,AC50,[1],"29.1 µM [falling, single point]"
Cc1cc(C(=O)Nc2ccc(S(=O)(=O)N3CCCC3)cc2)cs1,cell number change,,-0.811%
same,AC50,[1],"5.8 µM [rising, partial curve, poor fit]"
COc1ccccc1OCc1ccc(C(=O)Nc2ccccc2)cc1,cell number change,,-18.7%
same,AC50,[1],"0.82 µM [falling, full curve, poor fit]"
Cn1c2ccccc2c2ncn(Cc3ccco3)c(=O)c21,cell number change,,-18.9%
COc1ccc(N(C(=O)CNC(=O)c2ccco2)C(C(=O)NC2CCCCC2)c2cccnc2)cc1 (configuration not stated),cell number change,,23.1%
same,AC50,[2],"2.31 µM [rising, full curve, poor fit]"
same,AC50,[1],"29.1 µM [falling, single point]"
Cc1cc(C)nc(N/C(=N/S(=O)(=O)Cc2ccccc2)Nc2ccccc2)n1,cell number change,,21.7%
same,AC50,[1],"0.326 µM [rising, full curve, poor fit]"
CCN(CC)CCN(C(=O)c1ccc2c(c1)OCCO2)c1nc2ccc(C)cc2s1,cell number change,,5.95%
same,AC50,[1],"2.06 µM [rising, partial curve, poor fit]"
CCn1c2ccccc2c2cc(NC(=O)c3ccccc3[N+](=O)[O-])ccc21,cell number change,,-21.2%
same,AC50,[1],"1.16 µM [rising, full curve, poor fit]"
CCCn1ncc(CN2CCC(C(=O)Nc3cccc(-c4cccc(F)c4)c3)CC2)c1C,cell number change,,-36.6%
same,AC50,[2],"0.0366 µM [falling, full curve, poor fit]"
same,AC50,[1],"11.6 µM [falling, single point]"
Cc1cccc(N2C(=O)C(Oc3ccc(Cl)cc3Cl)C2C=O)c1C (configuration not stated),cell number change,,-61.9%
same,AC50,[2],"32.6 µM [falling, partial curve, poor fit]"
same,AC50,[1],"0.58 µM [falling, single point]"
CN(C)N1C(N)=C(C#N)C(c2ccsc2)C2=C1CC(C)(C)CC2=O (configuration not stated),AC50,[1],"0.461 µM [falling, single point]"
COc1cc(S(=O)(=O)NCc2ccc3c(c2)OCO3)ccc1Cl,cell number change,,11.7%
same,AC50,[1],"0.00461 µM [falling, full curve, poor fit]"
CC1=C(C(=O)c2ccccc2)C(c2cccc([N+](=O)[O-])c2)NC(=S)N1 (configuration not stated),cell number change,,0.271%
O=C(COc1ncnc2ccccc12)Nc1cc([N+](=O)[O-])ccc1Cl,cell number change,,18.5%
same,AC50,[2],"0.82 µM [rising, single point]"
Cc1ccc(S(=O)(=O)N[C@@H](CO)C(=O)N[C@@H](Cc2ccc(O)cc2)C(=O)O)cc1 (Tos-Ser-Tyr-OH),AC50,[1],"0.0731 µM [rising, full curve]"
Cc1cccc(C(=O)N=c2sccn2C)c1[N+](=O)[O-],cell number change,,1.45%
same,AC50,[1],"0.517 µM [rising, single point]"
CSc1ccccc1C(=O)Nc1ncc(C)s1,cell number change,,38.4%
same,AC50,[2],"29.1 µM [rising, single point]"
same,AC50,[1],"29.1 µM [rising, single point]"
CC(=O)c1ccc2noc(-c3cccc(C)c3)c2c1,cell number change,,58.5%
same,AC50,[2],"18.4 µM [rising, single point]"

# 5 entries from above in another layout.
smiles | measurement | setting | value
CCn1c2ccccc2c2cc(NC(=O)c3ccccc3[N+](=O)[O-])ccc21 | cell number change |  | -21.2%
same | AC50 | [1] | 1.16 µM [rising, full curve, poor fit]
CCCn1ncc(CN2CCC(C(=O)Nc3cccc(-c4cccc(F)c4)c3)CC2)c1C | cell number change |  | -36.6%
same | AC50 | [2] | 0.0366 µM [falling, full curve, poor fit]
same | AC50 | [1] | 11.6 µM [falling, single point]
